Laboratory results taken from the supplement of paper PMC8426693.
The list shows a part of the results.

The compounds below were run on SARS-CoV-2 5_SL5a RNA (assay: NMR binding call after quantification (hit when 2 of 3 NMR criteria are met) (binary (1 = binding, 0 = not binding)); higher = binding). Conditions: RNA concentration 10 µM; fragment concentration 200 µM; 293 K.

Compound | NMR binding call
Cn1cc(C(N)=O)c(C(F)F)n1 | 0
Cc1cc(C(=O)Nc2ccc3[nH]ccc3c2)no1 | 0
CC(=O)NCc1cn[nH]c1 | 0
Oc1ccc(CN2CCCC2)c2cccnc12 | 0
Cc1ccccc1OCC(=O)Nc1ncccn1 | 0
O=C(Nc1ccc(-n2cnnn2)cc1)C1CCC1 | 0
CS(=O)(=O)Nc1ccc(CN)cc1.Cl | 0
CNC(=O)Nc1nc2ccc(OC)cc2s1 | 0
CC(=O)Nc1ccc2[nH]c(=O)[nH]c2c1 | 0
CNC(=O)c1nc2ccccc2c(=O)[nH]1 | 0
c1ccc(CNC2CCNC2)cc1 (configuration not stated) | 0
CC1CCC(NC2CCC(O)CC2)CC1 (configuration not stated) | 0
Cc1cccc(CN2CCOCC2)c1 | 0
Cl.Cl.O=C(c1ccncc1)N1CCNCC1 | 0
COCC(=O)Nc1nc(-c2ccccc2)cs1 | 0
Cc1ccc(N2CCN(C(N)=O)CC2)cc1 | 0
O=C(NCCc1ccc(O)cc1)c1ccccn1 | 0
O=C1CN(C(=O)COc2ccccc2)CCN1 | 0
COc1ccc(CN2CCOCC2)cc1OC | 0

Compound | NMR binding call
NCc1ccc(-c2cccs2)cc1 | 0
CC1CCCN(C(=O)CO)C1 (configuration not stated) | 0
O=C(NO)c1ccc2ccccc2n1 | 0
COC(=O)C1CCN(CC(N)=O)CC1 | 0
CN(C)Cc1nc(C2(N)CCCC2)no1 | 0
Cc1ccc(NC(=O)C2CCCO2)nc1 (configuration not stated) | 0
CS(=O)(=O)c1nccn1Cc1cscn1 | 0
CN1CCN(c2ccc(C#N)cc2)CC1 | 0
CC(=O)c1ccc(OC(F)F)cc1 | 0
Cc1ccc(OCC(=O)Nc2cc(C)on2)cc1 | 0
Cl.NC1CCN(S(=O)(=O)c2ccccc2)C1 (configuration not stated) | 0
Cc1cc(CN(C)C(=O)NC2CC2)no1 | 0
CC(C)NCc1ccc(N(C)C)cc1 | 0
CC(=O)Nc1ccc(NC(=O)C2CC2(C)C)cc1 (configuration not stated) | 0
CCOC(=O)c1sc(N(C)C(C)=O)nc1C | 0
Cc1cc(N2CCNCC2)nc(C)n1 | 0
CC(=O)Nc1cc(C)n[nH]1 | 0
OCc1ccc(-n2cnc3ccccc32)cc1 | 0
